Test results published in publication PMC11894219.
No constants are given. Whether binding was seen depends on the method and setting. In cells and extracts the contact can be indirect. Some binding calls cover weakened binding; strength is not graded here.

By UniProt entry, the sequences of proteins in these tests, tags left out.
UniProt P54132: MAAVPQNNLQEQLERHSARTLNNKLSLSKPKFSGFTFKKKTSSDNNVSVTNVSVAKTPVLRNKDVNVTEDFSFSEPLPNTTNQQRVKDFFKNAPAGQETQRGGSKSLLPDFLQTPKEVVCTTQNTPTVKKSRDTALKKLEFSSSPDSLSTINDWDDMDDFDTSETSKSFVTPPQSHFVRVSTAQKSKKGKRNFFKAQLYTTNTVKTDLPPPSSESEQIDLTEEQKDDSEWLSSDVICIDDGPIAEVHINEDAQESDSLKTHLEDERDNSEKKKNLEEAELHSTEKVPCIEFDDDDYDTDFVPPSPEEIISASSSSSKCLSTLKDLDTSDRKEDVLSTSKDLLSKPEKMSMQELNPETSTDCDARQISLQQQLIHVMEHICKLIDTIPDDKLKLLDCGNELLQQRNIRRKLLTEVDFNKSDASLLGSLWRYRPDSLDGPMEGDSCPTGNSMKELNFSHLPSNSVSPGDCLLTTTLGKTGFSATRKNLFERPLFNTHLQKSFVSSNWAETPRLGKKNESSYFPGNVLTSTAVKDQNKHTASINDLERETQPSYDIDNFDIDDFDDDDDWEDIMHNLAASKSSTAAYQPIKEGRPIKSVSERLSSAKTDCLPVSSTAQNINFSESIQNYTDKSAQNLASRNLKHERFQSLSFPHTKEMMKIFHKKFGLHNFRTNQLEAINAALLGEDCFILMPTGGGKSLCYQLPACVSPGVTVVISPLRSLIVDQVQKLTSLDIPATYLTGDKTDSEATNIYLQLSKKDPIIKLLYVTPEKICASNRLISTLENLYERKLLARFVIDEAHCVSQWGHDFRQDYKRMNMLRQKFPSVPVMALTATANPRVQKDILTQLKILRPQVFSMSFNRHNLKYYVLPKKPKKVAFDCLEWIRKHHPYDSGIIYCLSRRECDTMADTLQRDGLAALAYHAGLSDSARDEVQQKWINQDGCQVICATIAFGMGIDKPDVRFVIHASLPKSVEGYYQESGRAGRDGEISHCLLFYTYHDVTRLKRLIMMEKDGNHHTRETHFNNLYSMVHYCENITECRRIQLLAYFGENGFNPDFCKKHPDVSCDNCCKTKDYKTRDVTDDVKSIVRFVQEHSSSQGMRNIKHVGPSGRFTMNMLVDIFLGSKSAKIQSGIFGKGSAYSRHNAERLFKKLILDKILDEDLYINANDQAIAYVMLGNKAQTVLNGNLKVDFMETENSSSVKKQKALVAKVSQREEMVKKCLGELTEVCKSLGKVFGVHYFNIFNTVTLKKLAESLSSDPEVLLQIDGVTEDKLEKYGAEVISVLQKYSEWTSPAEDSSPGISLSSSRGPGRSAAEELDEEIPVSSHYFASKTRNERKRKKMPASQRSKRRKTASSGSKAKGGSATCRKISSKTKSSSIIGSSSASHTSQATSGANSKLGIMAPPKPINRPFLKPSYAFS

Key:
[1] = target: FLAG-miniTurbo-BLM (human) (UniProt P54132); assay: co-IP; whole-cell extract of mT-FLAG-BLM HEK293 cells with or without doxycycline; anti-FLAG precipitation; blot for FLAG and RAD54L2
FLAG-BirA*-BLM (human) = FLAG-BirA*-BLM (human) (UniProt P54132); assay: co-IP; nuclear extract (250 mM NaCl) of BirA*FLAG-BLM HEK293 cells with or without doxycycline; anti-FLAG precipitation; blot for BLM and RAD54L2

B1: RAD54L2 (protein, UniProt Q9Y4B4 1-1467)
chain: MSDESASGSDPDLDPDVELEDAEEEEEEEEVAVEECDRDDEEDLLDDPSLEGMCGTEHAQLGEDGQQPPRCTSTTSSQSEPSEQLRRHQGKNLASEDPKKKRAQKPSHMRRNIRKLLREDQLEPVTKAAQQEELERRKRLEQQRKDYAAPIPTVPLEFLPEEIALRASDGPQLPPRVLAQEVICLDSSSGSEDEKSSRDEVIELSSGEEDTLHIVDSSESVSEDDEEEEKGGTHVNDVLNQRDALGRVLVNLNHPPEEENVFLAPQLARAVKPHQIGGIRFLYDNLVESLERFKTSSGFGCILAHSMGLGKTLQVISFIDVLFRHTPAKTVLAIVPVNTLQNWLAEFNMWLPPPEALPADNKPEEVQPRFFKVHILNDEHKTMASRAKVMADWVSEGGVLLMGYEMYRLLTLKKSFATGRPKKTKKRSHPVIIDLDEEDRQQEFRREFEKALCRPGPDVVICDEGHRIKNCQASTSQALKNIRSRRRVVLTGYPLQNNLIEYWCMVDFVRPDFLGTRQEFSNMFERPILNGQCIDSTPQDVRLMRYRSHVLHSLLEGFVQRRGHTVLKIHLPAKEENVILVRLSKIQRDLYTQFMDRFRDCGSSGWLGLNPLKAFCVCCKIWNHPDVLYEALQKESLANEQDLDVEELGSAGTSARCPPQGTKGKGEDSTLASSMGEATNSKFLQGVGFNPFQERGNNIVTYEWAKDLLTNYQTGVLENSPKMVLLFHLIEESVKLGDKILVFSQSLSTLALIEEFLGKREVPCPPGTEGQGAQKWVRNISYFRLDGSTPAFERERLINQFNDPSNLTTWLFLLSTRAGCLGVNLIGANRVVVFDASWNPCHDAQAVCRVYRYGQKKPCYIYRLVADYTLEKKIYDRQISKQGMSDRVVDDLNPMLNFTRKEVENLLHFVEKEPAPQVSLNVKGIKESVLQLACLKYPHLITKEPFEHESLLLNRKDHKLTKAEKKAAKKSYEEDKRTSVPYTRPSYAQYYPASDQSLTSIPAFSQRNWQPTLKGDEKPVASVRPVQSTPIPMMPRHVPLGGSVSSASSTNPSMNFPINYLQRAGVLVQKVVTTTDIVIPGLNSSTDVQARINAGESIHIIRGTKGTYIRTSDGRIFAVRATGKPKVPEDGRMAASGSQGPSCESTSNGRHSASSPKAPDPEGLARPVSPDSPEIISELQQYADVAAARESRQSSPSTNAALPGPPAQLMDSSAVPGTALGTEPRLGGHCLNSSLLVTGQPCGDRHPVLDLRGHKRKLATPPAAQESSRRRSRKGHLPAPVQPYEHGYPVSGGFAMPPVSLNHNLTTPFTSQAGENSLFMGSTPSYYQLSNLLADARLVFPVTTDPLVPAGPVSSSSTATSVTASNPSFMLNPSVPGILPSYSLPFSQPLLSEPRMFAPFPSPVLPSNLSRGMSIYPGYMSPHAGYPAGGLLRSQVPPFDSHEVAEVGFSSNDDEDKDDDVIEVTGK
B1 was tested, and the binding [1] was “binds” and the binding (FLAG-BirA*-BLM (human)) was “binds”.
